# In PubChem BioAssay AID2549 (National Center for Advancing Translational Sciences (NCATS), 2010):
# By UniProt entry, the sequences of proteins in these tests, tags left out. Where a name states a change or a piece, a line headed by the entry shows the natural chain unless it says otherwise.
# UniProt P46063: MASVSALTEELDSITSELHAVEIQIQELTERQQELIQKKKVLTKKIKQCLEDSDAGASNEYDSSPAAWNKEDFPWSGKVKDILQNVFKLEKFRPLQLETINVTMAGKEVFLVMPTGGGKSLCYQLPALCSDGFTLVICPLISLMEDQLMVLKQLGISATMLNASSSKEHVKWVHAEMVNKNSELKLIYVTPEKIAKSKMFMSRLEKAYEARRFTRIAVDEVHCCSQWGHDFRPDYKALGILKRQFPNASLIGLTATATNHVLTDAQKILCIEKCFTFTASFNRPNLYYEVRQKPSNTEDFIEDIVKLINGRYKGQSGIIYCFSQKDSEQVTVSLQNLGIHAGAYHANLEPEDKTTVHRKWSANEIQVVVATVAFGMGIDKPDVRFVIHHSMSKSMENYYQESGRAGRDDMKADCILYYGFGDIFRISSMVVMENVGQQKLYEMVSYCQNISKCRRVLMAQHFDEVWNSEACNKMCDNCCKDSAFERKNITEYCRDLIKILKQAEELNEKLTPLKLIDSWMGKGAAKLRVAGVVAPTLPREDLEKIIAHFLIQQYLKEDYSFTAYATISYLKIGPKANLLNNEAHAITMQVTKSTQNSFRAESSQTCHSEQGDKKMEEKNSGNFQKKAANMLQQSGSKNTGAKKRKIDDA
# “And” between values parts separate entries of the source, which are not always exact repeats. Identical values can stand only once. Among all 240,000 compounds or so, about 1,300 (0.54%) were called active. This list was built around the results that the source calls inconclusive (neither active nor inactive); the mix of calls is not that of the screen. The call rests on the fitted dose curve; in most records, active means well fitted inhibition curve with a large enough effect; inconclusive means small, poorly fitted or top-dose-only effect; inactive means flat fitted curve, though single readings scatter. A potency beside an inconclusive call is a rough fit, not a confirmed value.
# Molecular target: ATP-dependent DNA helicase Q1 (Homo sapiens) (UniProt P46063)
# Assay: qHTS Assay for Inhibitors of RecQ-Like Dna Helicase 1 (RECQ1); further: nearly all actives have a fitted effect of over 30% in size;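 on activity, negative = inhibition: plate controls were vehicle for no effect and no enzyme for full effect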
# Conditions: RECQ1 DNA unwinding, red fluorescence kinetic read; activity, negative = inhibition: at 57.3 µM (top of the series); series mostly up to 57.3 µM
# Outline: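 RECQ1T1 50 nM; forked duplex (20 bp + 30-nt ss tails) 200 nM, ATP 2 mM final; pH 8.0, 2 mM MgCl2, 2.5 ug/ml poly(dI-dC); 15 min compound preincubation; discontinuous kinetic read over 2 h at RT.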
# Potency means the concentration at half of the fitted maximal effect.
Structure (SMILES),"activity, negative = inhibition",Potency,outcome
CSC1=NSC2=NC(=O)/C(=C/c3coc4ccccc4c3=O)C(=N)N12,inactive: -19.4%,–,–
O=C(COC(=O)c1ccc(Cl)nc1)Nc1ccc2c(c1)OCO2,–,"inconclusive: 1.41 µM [inhibitor, full curve]",–
Cc1ccc2nc(NCCN)c3ncc(C)n3c2c1,inactive: 13.2%,–,–
Cc1cc(C)c(Nc2cc(S(=O)(=O)O)c(N)c3c2C(=O)c2ccccc2C3=O)c(C)c1,–,"inconclusive: 28.2 µM [inhibitor, single point]",–
N#Cc1c(-c2cccc(Br)c2)cc(-c2ccco2)[nH]c1=O,–,"inconclusive: 31.6 µM [inhibitor, single point]",–
COc1ccccc1CCNC(=O)CSc1ccc(-c2ccco2)nn1,–,"inconclusive: 22.4 µM [inhibitor, single point]",–
CCCCn1c(Cl)nc2c1c(=O)n(C)c(=O)n2C,–,"inconclusive: 39.8 µM [inhibitor, single point]",–
NC(=O)c1c(N)sc2c1CCC2,–,"inconclusive: 0.316 µM [inhibitor, full curve]",–
CCC1(CC)C(=O)C2=C3C1[C@H](C(=O)OC)CC(C(=O)OC)C[C@H]3n1c(=O)n(-c3ccccc3)c(=O)n1[C@H]2C (stereo partly specified),–,–,inactive
c1ccc(Nc2cc(-c3ccoc3)ncn2)cc1,inactive: -3.76%,–,–
COc1cc([C@H]2c3[nH]c4ccccc4c3C[C@H]3C(=O)N4[C@@H](c5cc(OC)c(OC)c(OC)c5)c5[nH]c6ccccc6c5C[C@H]4C(=O)N23)cc(OC)c1OC,inactive: -3.24%,–,–
COC(=O)[C@@H](NC(=O)O[C@@H]1C(=O)c2ccc(OC)cc2O[C@H]1c1ccc2c(c1)OCO2)C(C)C,inactive: -5.49%,–,–
C=C(CO)C1Cc2c(ccc3c2OC2COc4cc(OC)c(OC)cc4C2C3=O)O1 (stereo unspecified),inactive: 0.992%,–,–
CC1(C)OC2CC(=O)OC[C@@]23C1CC(=O)[C@]1(C)C3CC[C@@]2(C)C(c3ccoc3)OC(=O)C3O[C@@]321 (stereo partly specified),–,"inconclusive: 39.8 µM [inhibitor, single point]",–
O=C1N=C2SCCN2/C1=C\c1c(Cl)cccc1Cl,–,"inconclusive: 3.98 µM [inhibitor, full curve]",–
O=C(Oc1coc(CSc2nnc(NC(=O)C3CC3)s2)cc1=O)c1c(F)cccc1F,–,"inconclusive: 39.8 µM [inhibitor, single point]",–
CN1/C(=C/c2cc[n+](C)c3ccccc23)C=Cc2ccccc21,–,"inconclusive: 17.8 µM [inhibitor, partial curve, poor fit]",–
COc1ccc(C(=NNc2ccccc2C(=O)O)c2ccc(OC)cc2)cc1,–,"inconclusive: 39.8 µM [inhibitor, single point]",–
CCCOc1ccc(Cc2nn3c(=O)/c(=C/c4ccco4)sc3nc2=O)cc1,–,active: 25.1 µM,–
COc1ccc(OC)c(C2=Nn3c(nnc3-c3ccccc3O)SC2)c1,–,–,inactive
CCn1c(=O)c(-c2cc(=O)[nH][nH]2)c(O)c2ccccc21,–,active: 25.1 µM,–
C/C(=N\OCc1nc2ccccc2c(=O)n1/N=C/c1cc([N+](=O)[O-])ccc1O)c1ccccc1,inactive: -26.3%,–,–
CCn1c(SCC(=O)c2cc(C)n(CC3CCCO3)c2C)nc2ccccc21 (stereo unspecified),–,active: 39.8 µM,–
CCC(=O)OC1(C)C(=O)C=C2C=C(CCCCNC(=O)OC(C)(C)C)OC=C2C1=O (stereo unspecified),–,"inconclusive: 28.2 µM [inhibitor, single point]",–

Structure (SMILES),"activity, negative = inhibition",Potency,outcome
N[C@](CC1c2ccccc2Oc2ccccc21)(C(=O)O)[C@@H]1C[C@@H]1C(=O)O,inactive: -2.44%,–,–
O=c1[nH]nc(CNc2ccc(O)cc2)c2ccccc12,–,active: 14.1 µM,–
Nc1ncnc2c1c(I)cn2C1OC(CO)C(O)C1O (stereo unspecified),inconclusive: -31.9% [inhibitor],–,–
C#CCOc1ccc(C(=O)N(C)c2ccccc2I)cc1,–,–,inactive
COc1ccc(OCCC(=O)OCC(=O)NC(=O)NC(C)(C)C)cc1,–,"inconclusive: 0.158 µM [inhibitor, partial curve, poor fit]",–
COC(=O)[C@@]1(Cc2ccc(OC)cc2)[C@H]2c3cc(C(=O)N(C)C)n(Cc4ccsc4Br)c3C[C@H]2CN1C(=O)c1ccccc1,inactive: -9.4%,–,–
COc1ccc(C2CC(=O)Oc3cc(O)cc(O)c32)cc1 (stereo unspecified),–,"inconclusive: 39.8 µM [inhibitor, single point]",–
Cc1cc(C)c(S(=O)(=O)NCC23C=CC(O2)C2C(=O)N(c4ccccc4)C(=O)C23)c(C)c1 (stereo unspecified),–,active: 11.2 µM,–
O=C1ON=C(c2ccccc2)/C1=C/c1ccc(-c2ccccc2[N+](=O)[O-])o1,–,"inconclusive: 39.8 µM [inhibitor, single point]",–
COc1cc(/C=C2\SC(=S)N(C(C(=O)O)c3ccccc3)C2=O)ccc1O (stereo unspecified),–,active: 22.4 µM,–
CCS(=O)(=O)c1ccc(OC)c(N=Nc2ccc(O)c3ncccc23)c1,inactive: -16.7%,–,–
O=C(COC(=O)C1(c2ccccc2F)CCCC1)NC1CCS(=O)(=O)C1 (stereo unspecified),–,"inconclusive: 15.8 µM [inhibitor, partial curve]",–
O=C1CN(C(=O)CSc2nc(-c3ccccc3)cs2)c2ccccc2N1,–,–,inactive
Cc1ccc(S(=O)(=O)N2CCCCC2)cc1C(=O)Nc1ncn[nH]1,inactive: -19.2%,–,–
COc1cccc(NC(=O)C(c2ccccc2)N2CCN(c3ccccn3)CC2)c1 (stereo unspecified),inactive: -10.9%,–,–
O=C(CSc1nnc(-c2ccncc2)n1-c1ccc(F)cc1)NC(=O)NCc1ccco1,–,"inconclusive: 31.6 µM [inhibitor, single point]",–
O=C1C=C(O)CC(c2ccco2)C1 (stereo unspecified),–,"inconclusive: 39.8 µM [inhibitor, single point]",–
CC(Cc1ccc(O)c(O)c1)C(C)Cc1ccc(O)c(O)c1 (stereo unspecified),–,active: 2.82 µM and active: 2.24 µM,–
Cc1ccccc1N/C=C/C(=C(C#N)C#N)N(C)C,–,"inconclusive: 0.0282 µM [inhibitor, full curve]",–
Clc1cccc(N/N=C/c2ccc(N3CCOCC3)cc2)c1,–,"inconclusive: 0.0251 µM [inhibitor, full curve]",–
CCOC(=O)c1c(NC(=O)CSc2nnc(CNc3ccc(OC)cc3)n2C)sc(C)c1C,–,"inconclusive: 4.47 µM [inhibitor, partial curve]",–
COc1ccc(OC)c(Nc2nc(NCCCN(C)C)nc(N)c2[N+](=O)[O-])c1,–,"inconclusive: 39.8 µM [inhibitor, single point]",–
O=C(O)c1ccc(COc2ccccc2/C=C2\NC(=O)N(Cc3ccc(F)cc3)C2=O)cc1,inactive: -1.5%,–,–
O=C(NC(=O)N1CCCc2ccccc21)c1ccccc1,–,"inconclusive: 0.199 µM [inhibitor, full curve]",–

Structure (SMILES),"activity, negative = inhibition",Potency,outcome
O=C(O)/C=C\C(=O)Nc1ccc(N2CCN(c3ccc(Cl)c(Cl)c3)CC2)cc1,–,"inconclusive: 39.8 µM [inhibitor, single point]",–
c1ccc2c(c1)Nc1ccncc1S2,inactive: -4.05%,–,–
COc1ccc(Cl)cc1C(=O)N/N=C/c1ccc(N2CCOCC2)cc1,–,–,inactive
Cc1nn(-c2ccccc2)c(C)c1C(=O)OCC(=O)NC(=O)NC1CCCCC1,–,"inconclusive: 35.5 µM [inhibitor, partial curve]",–
O=C(CCc1c[nH]c2ccccc12)NC1CC1,–,"inconclusive: 0.178 µM [inhibitor, full curve, poor fit]",–
CCOC(=O)CCN1C(=O)[C@H]2[C@H]3[C@H](O)[C@H](O)C/C(=N/OC/C=C(\C)CCC=C(C)C)[C@@H]3CC[C@@H]2C1=O,–,–,inactive [at 11.5 µM]
Cc1ccc(-c2ccc(/C=C/C(=O)c3ccccc3)o2)cc1,–,"inconclusive: 14.1 µM [inhibitor, partial curve]",–
CC(C)(C)C1CCC2(CC1)C(C#N)=C(SCC(=O)Nc1ccccc1)NC(=O)C2C#N (stereo unspecified),inactive: 12.9%,–,–
Nc1ccc2nc3c(=O)[nH]c(=S)[nH]c3nc2c1,–,active: 7.94 µM,–
CC(=O)c1sc2nc(SCC(=O)N3CCCCC3)[nH]c(=O)c2c1C,–,"inconclusive: 31.6 µM [inhibitor, single point]",–
CC1(C)CC2(CC(c3ccccc3F)c3ccc(O)c(O)c3O2)NC(=S)N1 (stereo unspecified),inactive: -8.99%,–,–
COc1ccccc1CNC(=O)c1cnn2c(C(F)F)cc(C)nc12,–,"inconclusive: 0.158 µM [inhibitor, full curve, poor fit]",–
Cc1ccc(C=C2C(=O)c3ccccc3C2=O)s1,–,active: 14.1 µM,–
Cc1ccc(C)n1/N=C1/NC(=O)CS1,–,"inconclusive: 35.5 µM [inhibitor, single point]",–
COc1cccc(/C=N/NC(=O)c2cc3cc([N+](=O)[O-])ccc3s2)c1O,inactive: -20.1%,–,–
NC(=O)c1cnn2c1NC(c1ccc(F)cc1)CC2C(F)(F)F (stereo unspecified),–,"inconclusive: 6.31 µM [inhibitor, single point]",–
N#Cc1ccc(NC(=O)COC(=O)CSc2nnc(-c3ccc(Cl)cc3)o2)cc1,–,"inconclusive: 25.1 µM [inhibitor, single point]",–
COc1ccc(-c2noc(-c3ccccc3C(=O)Nc3cccnc3)n2)cc1,–,"inconclusive: 20 µM [inhibitor, single point]",–
Nc1cc(=O)[nH]c(SCC(=O)Nc2ccc3c(c2)CCC3)n1,–,"inconclusive: 39.8 µM [inhibitor, single point]",–
O=c1cc(-c2ccccc2Cl)oc2c([N+](=O)[O-])ccc(O)c12,–,–,inactive [at 81.1 µM]
CC/C(C)=C1\SC(N2CCOCC2)=NC1=O,–,"inconclusive: 0.158 µM [inhibitor, full curve, poor fit]",–
Cn1cc(C2=C(c3cn(CCCSC(=N)N)c4ccccc34)C(=O)NC2=O)c2ccccc21,–,"inconclusive: 39.8 µM [inhibitor, single point]",–
O=C(/C=C/c1cccc([N+](=O)[O-])c1)NCCSCc1ccc(Cl)cc1Cl,–,"inconclusive: 15.8 µM [inhibitor, partial curve]",–
